In patent publication US9707229B2, “Compositions and methods for treating an infection” (CMPD LICENSING, LLC, priority 2015, dated 2017):
At least one compound was matched to its structure with a doubt left.

Tests used:
Experiment in all cases: Expected efficacy of antibiotic agents
Assay type in all cases: cell-based
Pseudomonas fluorescens = details: Gram: neg
Enterobacter aerogenes = details: Gram: neg
Streptococcus agalactiae = details: Gram: pos
Pseudomonas aeruginosa = details: Gram: neg
Morganella morganii = details: Gram: neg
[1] = test system: Klebsiella (Calymmatobacterium) granulomatis; details: Gram: neg
Escherichia coli = details: Gram: neg
Enterococcus faecium = details: Gram: pos
Enterobacter cloacae = details: Gram: neg
Serratia marcescens = details: Gram: neg
Campylobacter jejuni = details: Gram: neg
Enterococcus faecalis = details: Gram: pos
[2] = test system: Methicillin resistant staph aureus (MRSA); details: Gram: pos
Vibrio cholerae = details: Gram: neg
Peptostreptococcus = details: Gram: pos
[3] = test system: Staphylococcus epidermidis; details: Gram: pos
Acinetobacter baumannii = details: Gram: neg
Bartonella bacilliformis = details: Gram: neg
Bacteroides fragilis = details: Gram: anaer
[4] = test system: Haemophilus parainfluenzae; details: Gram: neg
[5] = test system: Acinetobacter calcoaceticus; details: Gram: neg
Klebsiella pneumoniae = details: Gram: neg
Proteus vulgaris = details: Gram: neg
Streptococcus pneumoniae = details: Gram: pos
Neisseria gonorrhoeae = details: Gram: neg
Enterobacter sakazakii = details: Gram: neg
Haemophilus influenzae = details: Gram: neg
Proteus mirabilis = details: Gram: neg
Acinetobacter lwoffii = details: Gram: neg
[6] = test system: Staphylococcus aureus (MSSA); details: Gram: pos
Providencia rettgeri = details: Gram: neg
Bordetella pertussis = details: Gram: neg
Chlamydia pneumoniae = details: Gram: n/a
Citrobacter freundii = details: Gram: neg
[7] = test system: Viridans group streptococci; details: Gram: pos
Providencia stuartii = details: Gram: neg
Shigella dysenteriae = details: Gram: neg
Klebsiella oxytoca = details: Gram: neg
Streptococcus pyogenes = details: Gram: pos
Citrobacter diversus = details: Gram: neg
Chlamydia trachomatis = details: Gram: n/a
Moraxella catarrhalis = details: Gram: neg
Neisseria meningitidis = details: Gram: neg
[8] = test system: Corynebacterium urealyticum; details: Gram: pos
Salmonella typhi = details: Gram: neg
Mycoplasma pneumoniae = details: Gram: n/a
Haemophilus ducreyi = details: Gram: neg
Corynebacterium jeikeium = details: Gram: pos

CCC[C@@H]1C[C@@H](C(=O)N[C@@H]([C@H]2O[C@H](SC)[C@H](O)[C@@H](O)[C@H]2O)[C@H](C)Cl)N(C)C1 [Clindamycin]
efficacy against Pseudomonas fluorescens (Pseudomonas fluorescens): no
efficacy against Enterobacter aerogenes (Enterobacter aerogenes): no
efficacy against Streptococcus agalactiae (Streptococcus agalactiae): yes
efficacy against Pseudomonas aeruginosa (Pseudomonas aeruginosa): no
efficacy against Morganella morganii (Morganella morganii): no
efficacy against Klebsiella (Calymmatobacterium) granulomatis [1]: no
efficacy against Escherichia coli (Escherichia coli): no
efficacy against Enterococcus faecium (Enterococcus faecium): no
efficacy against Enterobacter cloacae (Enterobacter cloacae): no
efficacy against Serratia marcescens (Serratia marcescens): no
efficacy against Campylobacter jejuni (Campylobacter jejuni): no
efficacy against Enterococcus faecalis (Enterococcus faecalis): no
efficacy against Methicillin resistant staph aureus (MRSA) [2]: no
efficacy against Vibrio cholerae (Vibrio cholerae): no
efficacy against Peptostreptococcus (Peptostreptococcus): yes
efficacy against Staphylococcus epidermidis [3]: yes
efficacy against Acinetobacter baumannii (Acinetobacter baumannii): no
efficacy against Bartonella bacilliformis (Bartonella bacilliformis): no
efficacy against Bacteroides fragilis (Bacteroides fragilis): yes
efficacy against Haemophilus parainfluenzae [4]: no
efficacy against Acinetobacter calcoaceticus [5]: no
efficacy against Klebsiella pneumoniae (Klebsiella pneumoniae): no
efficacy against Proteus vulgaris (Proteus vulgaris): no
efficacy against Streptococcus pneumoniae (Streptococcus pneumoniae): yes
efficacy against Neisseria gonorrhoeae (Neisseria gonorrhoeae): no
efficacy against Enterobacter sakazakii (Enterobacter sakazakii): no
efficacy against Haemophilus influenzae (Haemophilus influenzae): no
efficacy against Proteus mirabilis (Proteus mirabilis): no
efficacy against Acinetobacter lwoffii (Acinetobacter lwoffii): no
efficacy against Staphylococcus aureus (MSSA) [6]: yes
efficacy against Providencia rettgeri (Providencia rettgeri): no
efficacy against Bordetella pertussis (Bordetella pertussis): no
efficacy against Chlamydia pneumoniae (Chlamydia pneumoniae): ±
efficacy against Citrobacter freundii (Citrobacter freundii): no
efficacy against Viridans group streptococci [7]: yes
efficacy against Providencia stuartii (Providencia stuartii): no
efficacy against Shigella dysenteriae (Shigella dysenteriae): no
efficacy against Klebsiella oxytoca (Klebsiella oxytoca): no
efficacy against Streptococcus pyogenes (Streptococcus pyogenes): yes
efficacy against Citrobacter diversus (Citrobacter diversus): no
efficacy against Chlamydia trachomatis (Chlamydia trachomatis): no
efficacy against Moraxella catarrhalis (Moraxella catarrhalis): no
efficacy against Neisseria meningitidis (Neisseria meningitidis): no

C[C@H]1c2cccc(O)c2C(=O)C2=C(O)[C@]3(O)C(=O)C(C(N)=O)=C(O)[C@@H](N(C)C)[C@@H]3[C@@H](O)[C@@H]21 [Doxycycline]
efficacy against Enterobacter aerogenes (Enterobacter aerogenes): ±
efficacy against Streptococcus agalactiae (Streptococcus agalactiae): ±
efficacy against Pseudomonas aeruginosa (Pseudomonas aeruginosa): no
efficacy against Morganella morganii (Morganella morganii): no
efficacy against Klebsiella (Calymmatobacterium) granulomatis [1]: yes
efficacy against Escherichia coli (Escherichia coli): ±
efficacy against Enterococcus faecium (Enterococcus faecium): no
efficacy against Enterobacter cloacae (Enterobacter cloacae): ±
efficacy against Serratia marcescens (Serratia marcescens): no
efficacy against Campylobacter jejuni (Campylobacter jejuni): yes
efficacy against Enterococcus faecalis (Enterococcus faecalis): no
efficacy against Methicillin resistant staph aureus (MRSA) [2]: ±
efficacy against Vibrio cholerae (Vibrio cholerae): yes
efficacy against Peptostreptococcus (Peptostreptococcus): ±
efficacy against Staphylococcus epidermidis [3]: yes
efficacy against Acinetobacter baumannii (Acinetobacter baumannii): no
efficacy against Bartonella bacilliformis (Bartonella bacilliformis): yes
efficacy against Bacteroides fragilis (Bacteroides fragilis): ±
efficacy against Haemophilus parainfluenzae [4]: yes
efficacy against Acinetobacter calcoaceticus [5]: ±
efficacy against Klebsiella pneumoniae (Klebsiella pneumoniae): ±
efficacy against Corynebacterium urealyticum [8]: ±
efficacy against Proteus vulgaris (Proteus vulgaris): no
efficacy against Streptococcus pneumoniae (Streptococcus pneumoniae): yes
efficacy against Neisseria gonorrhoeae (Neisseria gonorrhoeae): ±
efficacy against Enterobacter sakazakii (Enterobacter sakazakii): ±
efficacy against Haemophilus influenzae (Haemophilus influenzae): yes
efficacy against Proteus mirabilis (Proteus mirabilis): no
efficacy against Acinetobacter lwoffii (Acinetobacter lwoffii): no
efficacy against Salmonella typhi (Salmonella typhi): ±
efficacy against Staphylococcus aureus (MSSA) [6]: ±
efficacy against Mycoplasma pneumoniae (Mycoplasma pneumoniae): ±
efficacy against Providencia rettgeri (Providencia rettgeri): no
efficacy against Chlamydia pneumoniae (Chlamydia pneumoniae): yes
efficacy against Citrobacter freundii (Citrobacter freundii): no
efficacy against Viridans group streptococci [7]: ±
efficacy against Haemophilus ducreyi (Haemophilus ducreyi): yes
efficacy against Providencia stuartii (Providencia stuartii): no
efficacy against Shigella dysenteriae (Shigella dysenteriae): ±
efficacy against Klebsiella oxytoca (Klebsiella oxytoca): ±
efficacy against Streptococcus pyogenes (Streptococcus pyogenes): ±
efficacy against Citrobacter diversus (Citrobacter diversus): no
efficacy against Chlamydia trachomatis (Chlamydia trachomatis): yes
efficacy against Moraxella catarrhalis (Moraxella catarrhalis): yes
efficacy against Neisseria meningitidis (Neisseria meningitidis): yes

C[C@H]1COc2c(N3CCN(C)CC3)c(F)cc3c(=O)c(C(=O)O)cn1c23 [Levofloxacin]
efficacy against Pseudomonas fluorescens (Pseudomonas fluorescens): yes
efficacy against Enterobacter aerogenes (Enterobacter aerogenes): yes
efficacy against Streptococcus agalactiae (Streptococcus agalactiae): yes
efficacy against Pseudomonas aeruginosa (Pseudomonas aeruginosa): yes
efficacy against Morganella morganii (Morganella morganii): yes
efficacy against Escherichia coli (Escherichia coli): yes
efficacy against Enterococcus faecium (Enterococcus faecium): no
efficacy against Enterobacter cloacae (Enterobacter cloacae): yes
efficacy against Serratia marcescens (Serratia marcescens): yes
efficacy against Campylobacter jejuni (Campylobacter jejuni): yes
efficacy against Enterococcus faecalis (Enterococcus faecalis): yes
efficacy against Methicillin resistant staph aureus (MRSA) [2]: no
efficacy against Vibrio cholerae (Vibrio cholerae): yes
efficacy against Peptostreptococcus (Peptostreptococcus): ±
efficacy against Staphylococcus epidermidis [3]: yes
efficacy against Acinetobacter baumannii (Acinetobacter baumannii): ±
efficacy against Bartonella bacilliformis (Bartonella bacilliformis): yes
efficacy against Bacteroides fragilis (Bacteroides fragilis): no
efficacy against Haemophilus parainfluenzae [4]: yes
efficacy against Acinetobacter calcoaceticus [5]: ±
efficacy against Klebsiella pneumoniae (Klebsiella pneumoniae): yes
efficacy against Corynebacterium urealyticum [8]: ±
efficacy against Proteus vulgaris (Proteus vulgaris): yes
efficacy against Streptococcus pneumoniae (Streptococcus pneumoniae): yes
efficacy against Neisseria gonorrhoeae (Neisseria gonorrhoeae): yes
efficacy against Enterobacter sakazakii (Enterobacter sakazakii): yes
efficacy against Haemophilus influenzae (Haemophilus influenzae): yes
efficacy against Proteus mirabilis (Proteus mirabilis): yes
efficacy against Acinetobacter lwoffii (Acinetobacter lwoffii): ±
efficacy against Salmonella typhi (Salmonella typhi): yes
efficacy against Staphylococcus aureus (MSSA) [6]: yes
efficacy against Mycoplasma pneumoniae (Mycoplasma pneumoniae): yes
efficacy against Providencia rettgeri (Providencia rettgeri): yes
efficacy against Corynebacterium jeikeium (Corynebacterium jeikeium): no
efficacy against Bordetella pertussis (Bordetella pertussis): ±
efficacy against Chlamydia pneumoniae (Chlamydia pneumoniae): yes
efficacy against Citrobacter freundii (Citrobacter freundii): yes
efficacy against Viridans group streptococci [7]: yes
efficacy against Providencia stuartii (Providencia stuartii): yes
efficacy against Shigella dysenteriae (Shigella dysenteriae): yes
efficacy against Klebsiella oxytoca (Klebsiella oxytoca): yes
efficacy against Streptococcus pyogenes (Streptococcus pyogenes): yes
efficacy against Citrobacter diversus (Citrobacter diversus): yes
efficacy against Moraxella catarrhalis (Moraxella catarrhalis): yes
efficacy against Neisseria meningitidis (Neisseria meningitidis): yes
